Laboratory results published in PubChem BioAssay AID493014 (National Center for Advancing Translational Sciences (NCATS), 2011).
The other results are listed elsewhere or left out. These are further read-outs of the screen, such as a control signal, another cell line or another target. No call is given for them. The list favours compounds with an active or inconclusive main result. Words in brackets tell the shape of the fitted curve; partial curves, single points and poor fits give uncertain potencies.

Test: qHTS Assay to Find Inhibitors of Chronic Active B-Cell Receptor Signaling
Settings: ABC-DLBCL IkBa-CBG/CBR reporter, luminescence ratio (green luciferase fused to IkBa over red control in TMD8 lymphoma cells), 4 h
Outline: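 Doxycycline induced both beetle luciferases in TMD8 lymphoma cells; IKK-driven degradation limits the IkappaBalpha-fused green signal, while red luminescence normalises for cell number and nonspecific effects. Compounds tested up to 46 uM, 4 hrs.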

[1] = measured here: CBR red luminescence, cell number
[2] = measured here: IkBa-CBG green luminescence

| SMILES | AC50 [1] | AC50 [2] |
| --- | --- | --- |
| COc1ccc(CCN(C)C(=O)c2cc(-c3ccccc3)nc3ccccc23)cc1OC | 35.5 µM [falling, single point] |  |
| CCCNC(=O)c1c(N)n(-c2cccc(OC)c2)c2nc3ccccc3nc12 | 7.08 µM [falling, partial curve, poor fit] |  |
| O=C(COc1cccc2c1CCN(Cc1ccc(Cl)cc1)C2=O)N1CCOCC1 | 10 µM [falling, partial curve, poor fit] |  |
| Cc1ccc(S(=O)(=O)N2CCOCC2)cc1C(=O)N(C)CCOc1ccc(Cl)cc1 | 11.2 µM [falling, partial curve, poor fit] |  |
| COc1cccc(Nc2nnc(Cc3cccnc3)c3ccccc23)c1 | 35.5 µM [falling, single point] |  |
| Cn1c(=O)c(-c2ccccc2N)nc2ccccc21 | 3.66 µM [rising, partial curve, poor fit] |  |
| Cc1ccc(S(=O)(=O)N2C=CC(C(F)(F)F)=NCC2)cc1 | 2.06 µM [falling, single point] |  |
| COc1ccc(NCc2nnc(SCC(=O)NCc3ccccc3)n2-c2ccccc2OC)cc1 | 16.4 µM [falling, partial curve, poor fit] |  |
| COc1ccccc1Nc1nc2ccc(C)cc2n2cnnc12 | 2 µM [rising, full curve] |  |
| COC(=O)CNC(c1ccccc1)c1cc(C)ccc1NC(=O)c1cccc(Cl)c1 (stereo not drawn) | 20.6 µM [falling, single point] |  |
| CCCn1c(O)c(/C=C2\C=NN=C2c2ccccc2)sc1=S | 0.708 µM [falling, full curve] |  |
| O=C(CSc1ccccc1)Nc1ccc2c(c1)OCCO2 | 15.8 µM [falling, single point] |  |
| Cc1ccc(C(=O)Nc2cccc(C(=O)O)c2)cc1 | 1.84 µM [falling, full curve] | 16.4 µM [rising, partial curve, poor fit] |
| CCCOc1ccccc1C1CC(=O)Nc2cc3c(cc21)OCCO3 (stereo not drawn) | 20.6 µM [rising, partial curve] | 16.4 µM [falling, partial curve] |
| COc1cccc(OC)c1C(=O)Nc1nc2ccc([N+](=O)[O-])cc2s1 | 15.8 µM [falling, single point] |  |
| O=C(Nc1cccnc1)c1cnn2cccnc12 | 3.66 µM [falling, single point] |  |
| Cc1ccccc1C(=O)NNC(=S)NC(=O)c1ccc(Cl)cc1Cl | 20.6 µM [falling, partial curve, poor fit] |  |
| COc1ccccc1CC(=O)Nc1ccc(S(=O)(=O)N2CC(C)CC(C)C2)cc1 (stereo not drawn) | 4.11 µM [falling, full curve] |  |
| CCOC(=O)c1ccc(Nc2nc(C(=O)OCC)nc3ccccc23)cc1 | 35.5 µM [falling, single point] |  |
| CCC(=O)Nc1cccc(-n2nnnc2SCC(=O)c2ccc(C)c(C)c2)c1 | 3.26 µM [rising, partial curve, poor fit] |  |

Reformatted with each value named: entries from further up.
COc1ccc(CCN(C)C(=O)c2cc(-c3ccccc3)nc3ccccc23)cc1OC
  AC50 [1]: 35.5 µM [falling, single point]
CCCNC(=O)c1c(N)n(-c2cccc(OC)c2)c2nc3ccccc3nc12
  AC50 [1]: 7.08 µM [falling, partial curve, poor fit]
O=C(COc1cccc2c1CCN(Cc1ccc(Cl)cc1)C2=O)N1CCOCC1
  AC50 [1]: 10 µM [falling, partial curve, poor fit]

Next results follow.

| SMILES | AC50 [1] | AC50 [2] |
| --- | --- | --- |
| O=C(Cn1cnc2ccccc2c1=O)NCC(=O)N1CCOCC1 | 35.5 µM [rising, single point] |  |
| O=C(CNS(=O)(=O)c1ccccc1)NCC(=O)OCc1ccc(C(=O)c2ccccc2)cc1 | 16.4 µM [rising, partial curve, poor fit] |  |
| Cc1ccc(C)c(CN2C(=O)c3ccccc3S(=O)(=O)c3ccc(C(=O)N4CCN(C)CC4)cc32)c1 | 15.8 µM [falling, single point] |  |
| Cc1ccc(-n2ncc3c(N4CCC(C)CC4)ncnc32)cc1C | 0.891 µM [rising, full curve, poor fit] |  |
| O=c1cc(N2CCCCC2)c(-c2ccccc2)nn1Cc1ccc(Cl)cc1Cl | 5.62 µM [rising, single point] |  |
| CCCc1nn(C)c(C(=O)Nc2cccc3ccccc23)c1Cl | 18.4 µM [falling, partial curve] |  |
| N#CC1=C(N)Nc2nc3ccccc3n2C1c1ccc(F)cc1 (stereo not drawn) | 29.1 µM [falling, single point] |  |
| CC(C)(C)c1ccc(-c2noc(-c3ccno3)n2)cc1 | 25.1 µM [rising, partial curve, poor fit] |  |
| CCOc1ccccc1NC(=O)CSc1nnc(Cc2cccn2C)n1-c1ccc(F)cc1 | 2.31 µM [falling, partial curve] |  |
| CCOc1cc(/C=C2\SC(=Nc3ccc(F)cc3)N(c3ccc(F)cc3)C2=O)ccc1OCC(=O)O | 8.91 µM [falling, partial curve, poor fit] |  |
| CCCCC(=O)Nc1cccc(NC(=O)c2ccc(Br)o2)c1 | 1.3 µM [falling, partial curve, poor fit] |  |
| O=C(OCc1ccco1)c1ccc(S(=O)(=O)N2CCCCC2)cc1 | 5.17 µM [rising, partial curve] |  |
| COc1cccc(-c2ccc3ncnc(NCc4cc(C)cs4)c3c2)c1 | 29.1 µM [falling, single point] |  |
| Cc1cccc(-c2nc3ccccc3c(=O)n2NC(=O)c2cccs2)c1 | 29.1 µM [rising, single point] |  |
| CCOC(=O)C1=C(O)CCn2c1nc1ccccc12 | 3.26 µM [falling, full curve] |  |
| Cc1ccc(Cl)cc1N1CCN(C(=S)NCCc2ccccc2)CC1 | 20 µM [falling, single point] |  |
| COc1ccc(-c2sc(Nc3ccccc3)n[n+]2-c2ccc(F)cc2)c(C)c1C | 2.82 µM [falling, full curve] |  |
| COc1ccc(-n2nc3c(c2NC(=O)c2c(F)cccc2Cl)CS(=O)C3)cc1 (stereo not drawn) | 2.31 µM [rising, single point] |  |
| Cc1c(CCNS(=O)(=O)c2ccccc2)sc2nc(-c3ccc(Cl)cc3)nn12 | 22.4 µM [falling, partial curve] | 20 µM [rising, partial curve, poor fit] |
| CN1CCN(c2ccc(NC(=O)c3ccc4c(c3)OCCO4)cc2Cl)CC1 | 22.4 µM [falling, single point] |  |
